Experimental findings from the supplement of paper PMC12823440, “Inhibitors supercharge kinase turnover through native proteolytic circuits” (Nature, 2025) are described below.

Protein sequences, listed by entry. Tags and fused reporters are not part of them. Lines headed by an entry give the natural chain unless they say otherwise; changes in a name come on top.
UniProt P07949, whole entry, looked up: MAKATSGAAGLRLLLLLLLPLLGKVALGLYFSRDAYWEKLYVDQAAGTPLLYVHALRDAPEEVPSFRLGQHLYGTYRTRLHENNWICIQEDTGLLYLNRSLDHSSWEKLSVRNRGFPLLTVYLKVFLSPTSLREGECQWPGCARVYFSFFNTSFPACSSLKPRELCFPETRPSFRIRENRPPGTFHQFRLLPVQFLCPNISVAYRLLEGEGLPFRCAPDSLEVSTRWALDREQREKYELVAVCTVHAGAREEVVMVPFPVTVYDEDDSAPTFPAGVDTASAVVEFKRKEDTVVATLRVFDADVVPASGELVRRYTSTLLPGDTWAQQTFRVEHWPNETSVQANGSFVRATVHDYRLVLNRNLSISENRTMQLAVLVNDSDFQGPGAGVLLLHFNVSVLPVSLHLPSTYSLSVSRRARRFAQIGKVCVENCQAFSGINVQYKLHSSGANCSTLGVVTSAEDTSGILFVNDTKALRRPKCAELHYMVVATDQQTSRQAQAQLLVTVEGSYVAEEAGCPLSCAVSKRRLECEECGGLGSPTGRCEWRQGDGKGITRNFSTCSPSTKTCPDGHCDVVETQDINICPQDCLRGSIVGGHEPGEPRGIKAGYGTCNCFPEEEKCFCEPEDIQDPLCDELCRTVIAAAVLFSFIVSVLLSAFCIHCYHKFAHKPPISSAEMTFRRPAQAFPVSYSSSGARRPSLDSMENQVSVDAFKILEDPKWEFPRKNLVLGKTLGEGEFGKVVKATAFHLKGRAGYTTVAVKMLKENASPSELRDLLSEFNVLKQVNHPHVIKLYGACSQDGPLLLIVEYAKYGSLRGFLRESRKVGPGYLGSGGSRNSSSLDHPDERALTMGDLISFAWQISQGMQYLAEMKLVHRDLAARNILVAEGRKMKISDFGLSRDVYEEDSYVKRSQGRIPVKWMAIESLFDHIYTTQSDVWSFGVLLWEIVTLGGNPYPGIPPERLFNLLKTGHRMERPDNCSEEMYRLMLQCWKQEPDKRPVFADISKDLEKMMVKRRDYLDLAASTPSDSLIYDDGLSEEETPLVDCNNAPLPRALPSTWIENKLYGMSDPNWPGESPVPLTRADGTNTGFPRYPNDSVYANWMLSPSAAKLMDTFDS
UniProt P07949, whole entry M918T, looked up: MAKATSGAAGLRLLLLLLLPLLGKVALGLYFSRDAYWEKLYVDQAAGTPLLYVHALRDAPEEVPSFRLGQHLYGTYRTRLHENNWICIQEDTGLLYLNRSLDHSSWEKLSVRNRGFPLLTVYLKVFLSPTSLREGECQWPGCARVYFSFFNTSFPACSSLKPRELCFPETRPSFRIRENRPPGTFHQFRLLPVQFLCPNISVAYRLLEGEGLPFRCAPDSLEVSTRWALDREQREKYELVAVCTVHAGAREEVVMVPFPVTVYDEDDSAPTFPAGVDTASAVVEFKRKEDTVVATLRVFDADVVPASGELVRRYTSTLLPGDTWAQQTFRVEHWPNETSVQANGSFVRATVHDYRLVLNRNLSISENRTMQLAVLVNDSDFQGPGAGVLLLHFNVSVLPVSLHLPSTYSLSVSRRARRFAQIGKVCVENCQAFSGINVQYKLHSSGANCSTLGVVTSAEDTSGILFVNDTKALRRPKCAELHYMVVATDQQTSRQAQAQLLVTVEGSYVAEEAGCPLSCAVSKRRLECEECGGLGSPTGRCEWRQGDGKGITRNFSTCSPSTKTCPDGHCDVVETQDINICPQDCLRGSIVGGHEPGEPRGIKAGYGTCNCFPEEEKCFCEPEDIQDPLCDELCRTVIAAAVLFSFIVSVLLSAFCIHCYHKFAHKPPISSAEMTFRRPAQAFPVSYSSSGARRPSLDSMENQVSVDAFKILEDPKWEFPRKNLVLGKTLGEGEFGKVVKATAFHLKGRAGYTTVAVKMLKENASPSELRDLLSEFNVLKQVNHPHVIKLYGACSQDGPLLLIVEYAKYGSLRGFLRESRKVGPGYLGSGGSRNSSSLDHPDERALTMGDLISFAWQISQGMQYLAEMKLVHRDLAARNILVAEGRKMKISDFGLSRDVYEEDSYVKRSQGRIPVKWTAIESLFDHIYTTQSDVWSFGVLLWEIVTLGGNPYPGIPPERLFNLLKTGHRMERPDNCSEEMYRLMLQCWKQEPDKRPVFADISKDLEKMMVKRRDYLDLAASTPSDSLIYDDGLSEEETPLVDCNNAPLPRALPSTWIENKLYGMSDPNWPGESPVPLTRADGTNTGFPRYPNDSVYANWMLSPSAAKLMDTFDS
UniProt Q9BRS2: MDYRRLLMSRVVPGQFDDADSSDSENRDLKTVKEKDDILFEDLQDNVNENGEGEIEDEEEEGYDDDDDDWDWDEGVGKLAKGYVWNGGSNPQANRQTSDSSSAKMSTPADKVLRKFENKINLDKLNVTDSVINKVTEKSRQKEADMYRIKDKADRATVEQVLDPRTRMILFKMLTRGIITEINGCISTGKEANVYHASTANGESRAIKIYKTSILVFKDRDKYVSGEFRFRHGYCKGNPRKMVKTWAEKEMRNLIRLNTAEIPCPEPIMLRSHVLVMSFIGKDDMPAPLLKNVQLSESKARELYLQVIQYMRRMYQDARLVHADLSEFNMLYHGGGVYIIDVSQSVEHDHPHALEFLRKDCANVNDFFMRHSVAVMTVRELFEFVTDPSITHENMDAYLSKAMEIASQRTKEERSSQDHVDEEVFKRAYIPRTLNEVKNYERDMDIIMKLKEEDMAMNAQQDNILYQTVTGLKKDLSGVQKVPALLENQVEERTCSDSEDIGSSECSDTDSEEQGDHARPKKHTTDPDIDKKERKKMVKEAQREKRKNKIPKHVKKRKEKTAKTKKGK
UniProt Q13546: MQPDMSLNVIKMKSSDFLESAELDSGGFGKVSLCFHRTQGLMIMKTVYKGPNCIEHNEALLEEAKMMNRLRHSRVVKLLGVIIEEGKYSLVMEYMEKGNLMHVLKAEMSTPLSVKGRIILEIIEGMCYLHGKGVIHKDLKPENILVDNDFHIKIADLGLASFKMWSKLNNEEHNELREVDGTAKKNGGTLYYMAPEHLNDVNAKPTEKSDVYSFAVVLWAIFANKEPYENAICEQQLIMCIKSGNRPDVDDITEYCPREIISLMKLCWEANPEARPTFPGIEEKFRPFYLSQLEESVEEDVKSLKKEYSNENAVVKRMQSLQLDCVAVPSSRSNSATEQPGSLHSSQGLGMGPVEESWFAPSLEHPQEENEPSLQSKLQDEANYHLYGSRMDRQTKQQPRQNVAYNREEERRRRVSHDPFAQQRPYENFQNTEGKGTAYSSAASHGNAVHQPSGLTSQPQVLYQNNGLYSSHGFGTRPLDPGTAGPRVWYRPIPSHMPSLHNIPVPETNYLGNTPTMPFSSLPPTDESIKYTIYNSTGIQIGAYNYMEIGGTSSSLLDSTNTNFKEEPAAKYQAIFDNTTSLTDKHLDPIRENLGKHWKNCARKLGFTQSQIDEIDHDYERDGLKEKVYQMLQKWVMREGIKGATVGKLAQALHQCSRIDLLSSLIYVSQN
UniProt Q01974, whole entry: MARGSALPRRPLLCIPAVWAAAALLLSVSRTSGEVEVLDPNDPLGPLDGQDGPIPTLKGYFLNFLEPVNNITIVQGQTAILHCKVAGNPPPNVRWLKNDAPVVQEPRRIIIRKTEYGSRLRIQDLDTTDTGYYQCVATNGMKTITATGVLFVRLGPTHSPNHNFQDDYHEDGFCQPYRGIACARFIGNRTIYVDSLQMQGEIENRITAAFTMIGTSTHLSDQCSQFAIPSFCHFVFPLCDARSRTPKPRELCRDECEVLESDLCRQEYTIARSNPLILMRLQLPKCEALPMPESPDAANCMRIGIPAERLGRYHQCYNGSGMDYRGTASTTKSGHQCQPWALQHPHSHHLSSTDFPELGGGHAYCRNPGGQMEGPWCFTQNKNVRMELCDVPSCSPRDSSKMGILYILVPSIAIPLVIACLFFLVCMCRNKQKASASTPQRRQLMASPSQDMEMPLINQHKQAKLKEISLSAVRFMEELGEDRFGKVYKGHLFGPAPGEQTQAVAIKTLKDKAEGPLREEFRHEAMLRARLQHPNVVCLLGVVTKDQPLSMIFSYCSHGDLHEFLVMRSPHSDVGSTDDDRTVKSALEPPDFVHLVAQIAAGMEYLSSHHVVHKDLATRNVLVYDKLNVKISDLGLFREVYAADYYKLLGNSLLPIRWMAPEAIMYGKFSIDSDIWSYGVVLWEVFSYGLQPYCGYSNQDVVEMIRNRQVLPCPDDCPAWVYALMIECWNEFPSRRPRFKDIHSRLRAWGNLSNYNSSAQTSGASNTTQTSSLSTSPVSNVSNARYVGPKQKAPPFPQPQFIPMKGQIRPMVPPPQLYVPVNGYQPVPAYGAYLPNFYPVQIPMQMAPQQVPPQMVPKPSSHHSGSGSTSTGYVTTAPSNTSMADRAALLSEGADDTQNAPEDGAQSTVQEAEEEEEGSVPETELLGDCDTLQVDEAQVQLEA
UniProt Q15418, whole entry: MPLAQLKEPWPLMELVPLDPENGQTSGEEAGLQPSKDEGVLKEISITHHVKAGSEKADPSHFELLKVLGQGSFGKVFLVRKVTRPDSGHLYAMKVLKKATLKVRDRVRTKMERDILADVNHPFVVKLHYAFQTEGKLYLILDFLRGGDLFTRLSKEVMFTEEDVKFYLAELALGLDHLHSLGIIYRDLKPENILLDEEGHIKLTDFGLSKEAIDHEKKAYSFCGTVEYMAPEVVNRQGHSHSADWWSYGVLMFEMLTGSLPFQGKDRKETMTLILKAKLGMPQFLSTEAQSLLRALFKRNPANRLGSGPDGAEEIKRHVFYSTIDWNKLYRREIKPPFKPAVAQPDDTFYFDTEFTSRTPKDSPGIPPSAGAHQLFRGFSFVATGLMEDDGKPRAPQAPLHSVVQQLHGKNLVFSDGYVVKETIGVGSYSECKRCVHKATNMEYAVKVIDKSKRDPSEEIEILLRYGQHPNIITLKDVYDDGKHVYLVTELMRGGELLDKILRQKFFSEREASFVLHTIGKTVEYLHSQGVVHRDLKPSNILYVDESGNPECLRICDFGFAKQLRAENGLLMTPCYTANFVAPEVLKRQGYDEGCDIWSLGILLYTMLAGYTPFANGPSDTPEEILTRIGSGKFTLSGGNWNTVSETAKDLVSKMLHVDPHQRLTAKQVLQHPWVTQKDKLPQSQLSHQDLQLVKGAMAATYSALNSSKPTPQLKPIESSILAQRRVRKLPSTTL
UniProt Q9NYA1, whole entry: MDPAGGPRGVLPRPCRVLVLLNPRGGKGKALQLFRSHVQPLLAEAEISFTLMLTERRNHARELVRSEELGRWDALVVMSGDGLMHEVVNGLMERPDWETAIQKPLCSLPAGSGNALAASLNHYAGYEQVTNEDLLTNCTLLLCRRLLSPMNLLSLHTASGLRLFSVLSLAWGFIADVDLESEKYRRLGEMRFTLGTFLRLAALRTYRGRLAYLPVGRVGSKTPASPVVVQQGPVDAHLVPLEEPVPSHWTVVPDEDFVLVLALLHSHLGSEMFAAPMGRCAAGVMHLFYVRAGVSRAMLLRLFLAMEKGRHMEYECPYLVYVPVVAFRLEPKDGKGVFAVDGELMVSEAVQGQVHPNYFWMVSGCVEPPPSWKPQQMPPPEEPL
UniProt Q9Y6E0: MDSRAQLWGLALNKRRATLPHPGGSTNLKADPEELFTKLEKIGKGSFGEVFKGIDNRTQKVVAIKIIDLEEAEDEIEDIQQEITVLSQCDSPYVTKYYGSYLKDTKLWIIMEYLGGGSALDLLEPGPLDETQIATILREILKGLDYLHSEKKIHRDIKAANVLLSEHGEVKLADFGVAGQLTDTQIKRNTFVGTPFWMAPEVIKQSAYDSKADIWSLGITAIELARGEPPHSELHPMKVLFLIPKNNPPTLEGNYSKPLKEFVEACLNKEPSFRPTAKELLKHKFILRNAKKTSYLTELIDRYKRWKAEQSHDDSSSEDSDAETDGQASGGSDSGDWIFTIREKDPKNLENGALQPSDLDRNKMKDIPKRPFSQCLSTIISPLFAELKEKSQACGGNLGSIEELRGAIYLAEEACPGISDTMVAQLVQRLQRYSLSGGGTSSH

Each structure is given as a SMILES string. Structures can show the parent of a compound that is named as a salt. The list shows a part of the results. Hit calls seldom repeat between salt and free forms of one compound.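 Kinases were expressed as nanoluciferase fusions in K562 cells and luminescence was read every 4 h between 2 and 18 h as percent of control, DMSO set to 100% and a positive control to 0%. A time point counts as decreased when the signal drops significantly (2 sigma). The hit call is the authors' own, does not follow from the count of time points alone, and its rule is not shown.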

Some targets named below: RET (UniProt P07949); RIOK1 (UniProt Q9BRS2); RIPK1 (UniProt Q13546); RIPK2 (UniProt O43353); ROR2 (UniProt Q01974); RPS6KA1 (UniProt Q15418); SPHK1 (UniProt Q9NYA1); SRC (UniProt P12931); STK24 (UniProt Q9Y6E0).
Common to all, as to experiment: kinase-Nluc reporter destabilization hit call (1 = scored as downregulated) (binary); higher = compound decreases kinase abundance
Details in all cases: K562, 2-18 h

The target of experiment [1] is RET_M918T (clone: RET_mut) (UniProt P07949).

With `COc1cc2c(-c3cnn4cc(N5CCC(N6CCN(C)CC6)CC5)cnc34)ccnc2cc1F` [ALK2-IN-4 (succinate)], the “kinase-Nluc reporter destabilization hit call” value is inactive: 0 with RET (10 µM); inactive: 0 in experiment [1] (10 µM); inactive: 0 with RIOK1 (10 µM); inactive: 0 with RIPK1 (10 µM); active: 1 in the experiment with RIPK2 (10 µM); inactive: 0 in the experiment with ROR2 (10 µM). For the same compound, the “kinase-Nluc reporter destabilization hit call” value with RPS6KA1 (10 µM), with SPHK1 (10 µM), with SRC (10 µM) and with STK24 (10 µM) was inactive: 0 each time.

Turning to `CN(C)C(=O)c1cc2cnc(Nc3ccc(N4CCNCC4)cn3)nc2n1C1CCCC1` [Ribociclib succinate], the “kinase-Nluc reporter destabilization hit call” value (with RET (10 µM); in experiment [1] (10 µM); with RIOK1 (10 µM); with RIPK1 (10 µM); with RIPK2 (10 µM); with ROR2 (10 µM)) was inactive: 0 each time. Also, the “kinase-Nluc reporter destabilization hit call” value with RPS6KA1 (10 µM), with SPHK1 (10 µM), with SRC (10 µM) and in the experiment with STK24 (10 µM) was inactive: 0 each time.

For the compound `Cc1ccc(NC(=O)c2ccc(CN3CCN(C)CC3)cc2)cc1Nc1nc(-c2cccnc2)cs1` [Masitinib (mesylate)], the “kinase-Nluc reporter destabilization hit call” value (in the experiment with RET (2.5 µM); in [1] (2.5 µM); in the experiment with RIOK1 (2.5 µM); with RIPK1 (2.5 µM); with RIPK2 (2.5 µM); with ROR2 (2.5 µM)) was inactive: 0 in each case. In addition, the “kinase-Nluc reporter destabilization hit call” value with RPS6KA1 (2.5 µM), with SPHK1 (2.5 µM), in the experiment with SRC (2.5 µM) and with STK24 (2.5 µM) was inactive: 0 throughout.

Regarding `O=C(O)c1ccc2c(c1)nc(Nc1cccc(Cl)c1)c1ccncc12` [Silmitasertib], the “kinase-Nluc reporter destabilization hit call” value (with RET (10 µM); in experiment [1] (10 µM); with RIOK1 (10 µM); with RIPK1 (10 µM); in the experiment with RIPK2 (10 µM); with ROR2 (10 µM)) was inactive: 0 throughout. The “kinase-Nluc reporter destabilization hit call” value with RPS6KA1 (10 µM), in the experiment with SPHK1 (10 µM), with SRC (10 µM) and with STK24 (10 µM) was inactive: 0 each time.

For the compound `Cn1cc(-c2cnc3ccc4ccc(CS(=O)(=O)NCc5ccccn5)cc4c(=O)c3c2)cn1`, the “kinase-Nluc reporter destabilization hit call” value (in the experiment with RET (10 µM); in experiment [1] (10 µM); with RIOK1 (10 µM); with RIPK1 (10 µM); in the experiment with RIPK2 (10 µM); in the experiment with ROR2 (10 µM)) was inactive: 0 each time. In addition, the “kinase-Nluc reporter destabilization hit call” value in the experiment with RPS6KA1 (10 µM), in the experiment with SPHK1 (10 µM), with SRC (10 µM) and with STK24 (10 µM) was inactive: 0 in each case.

For `CCN(CC)Cc1ccc(OC)c(-c2cc3c(-c4ccc(C(=O)O)c(C(C)C)c4)ccnc3[nH]2)c1`, the “kinase-Nluc reporter destabilization hit call” value (with RET (2.5 µM); in the experiment with RET (10 µM); in [1] (2.5 µM); in experiment [1] (10 µM); with RIOK1 (2.5 µM); with RIOK1 (10 µM)) was inactive: 0 each time. Besides, the “kinase-Nluc reporter destabilization hit call” value with RIPK1 (2.5 µM), with RIPK1 (10 µM), with RIPK2 (2.5 µM), in the experiment with RIPK2 (10 µM), with ROR2 (2.5 µM) and with ROR2 (10 µM) was inactive: 0 each time. The “kinase-Nluc reporter destabilization hit call” value with RPS6KA1 (2.5 µM), in the experiment with RPS6KA1 (10 µM), with SPHK1 (2.5 µM), with SPHK1 (10 µM), with SRC (2.5 µM) and with SRC (10 µM) was inactive: 0 each time. Moreover, the “kinase-Nluc reporter destabilization hit call” value with STK24 (2.5 µM) and in the experiment with STK24 (10 µM) was inactive: 0 in each case.

As for `CCS(=O)(=O)N1CCN(c2ccc(Nc3ncc(C(N)=O)c(NC4CC4)n3)cc2)CC1` [Cerdulatinib (hydrochloride)], the “kinase-Nluc reporter destabilization hit call” value (in the experiment with RET (10 µM); in experiment [1] (10 µM); with RIOK1 (10 µM); in the experiment with RIPK1 (10 µM); with RIPK2 (10 µM); with ROR2 (10 µM)) was inactive: 0 in each case. The “kinase-Nluc reporter destabilization hit call” value with RPS6KA1 (10 µM), with SPHK1 (10 µM), with SRC (10 µM) and with STK24 (10 µM) was inactive: 0 each time.

Take `C=CC(=O)Nc1cc(Nc2ncc(C(=O)OC(C)C)c(-c3cn(C)c4ccccc34)n2)c(OC)cc1N(C)CCN(C)C` [Mobocertinib]: the “kinase-Nluc reporter destabilization hit call” value (with RET (10 µM); in experiment [1] (10 µM); with RIOK1 (10 µM); with RIPK1 (10 µM); with RIPK2 (10 µM); with ROR2 (10 µM)) was inactive: 0 in each case. Also, the “kinase-Nluc reporter destabilization hit call” value with RPS6KA1 (10 µM), with SPHK1 (10 µM), with SRC (10 µM) and with STK24 (10 µM) was inactive: 0 in each case.

On to `C=CC(=O)Nc1cc(Nc2ncc(C(=O)OC(C)C)c(-c3cn(C)c4ccccc34)n2)c(OC)cc1N(C)CCN(C)C` [Mobocertinib (succinate)], for which the “kinase-Nluc reporter destabilization hit call” value (with RET (10 µM); in [1] (10 µM); with RIOK1 (10 µM); with RIPK1 (10 µM); with RIPK2 (10 µM); in the experiment with ROR2 (10 µM)) was inactive: 0 throughout. Besides, the “kinase-Nluc reporter destabilization hit call” value with RPS6KA1 (10 µM), in the experiment with SPHK1 (10 µM), with SRC (10 µM) and with STK24 (10 µM) was inactive: 0 in each case.

On to `C[C@H](Nc1cc(-c2cnn(C)c2)cc(Nc2cnccn2)n1)c1ccc(F)cc1` [Ilginatinib hydrochloride], for which the “kinase-Nluc reporter destabilization hit call” value (with RET (2.5 µM); in [1] (2.5 µM); in the experiment with RIOK1 (2.5 µM); with RIPK1 (2.5 µM); with RIPK2 (2.5 µM); with ROR2 (2.5 µM)) was inactive: 0 in each case. For the same compound, the “kinase-Nluc reporter destabilization hit call” value in the experiment with RPS6KA1 (2.5 µM), in the experiment with SPHK1 (2.5 µM), in the experiment with SRC (2.5 µM) and with STK24 (2.5 µM) was inactive: 0 in each case.

In the case of `N=C(N)NC(=O)c1nc(Cl)c(N)nc1N` [Amiloride (hydrochloride)], the “kinase-Nluc reporter destabilization hit call” value (in the experiment with RET (10 µM); in experiment [1] (10 µM); with RIOK1 (10 µM); with RIPK1 (10 µM); with RIPK2 (10 µM); with ROR2 (10 µM)) was inactive: 0 throughout. Moreover, the “kinase-Nluc reporter destabilization hit call” value with RPS6KA1 (10 µM), with SPHK1 (10 µM), with SRC (10 µM) and with STK24 (10 µM) was inactive: 0 each time.

On to `COCCOc1cc(F)c2c(Nc3ccc(NC(=O)Cn4cc(C(C)C)nn4)cc3)ncnc2c1`, for which the “kinase-Nluc reporter destabilization hit call” value (with RET (10 µM); in experiment [1] (10 µM); in the experiment with RIOK1 (10 µM); with RIPK1 (10 µM); with RIPK2 (10 µM); with ROR2 (10 µM)) was inactive: 0 each time. Also, the “kinase-Nluc reporter destabilization hit call” value with RPS6KA1 (10 µM), with SPHK1 (10 µM), in the experiment with SRC (10 µM) and in the experiment with STK24 (10 µM) was inactive: 0 each time.

Turning to `COc1ccc(S(=O)(=O)Nc2ccccc2CN(C)C/C=C/c2ccc(Cl)cc2)cc1` [KN-92 (phosphate)], the “kinase-Nluc reporter destabilization hit call” value (in the experiment with RET (2.5 µM); in [1] (2.5 µM); with RIOK1 (2.5 µM); in the experiment with RIPK1 (2.5 µM); with RIPK2 (2.5 µM); with ROR2 (2.5 µM)) was inactive: 0 each time. In addition, the “kinase-Nluc reporter destabilization hit call” value in the experiment with RPS6KA1 (2.5 µM), with SPHK1 (2.5 µM), with SRC (2.5 µM) and with STK24 (2.5 µM) was inactive: 0 each time.

For `CN(C)C(=N)NC(=N)N` [Metformin], the “kinase-Nluc reporter destabilization hit call” value (with RET (10 µM); in [1] (10 µM); with RIOK1 (10 µM); with RIPK1 (10 µM); with RIPK2 (10 µM); with ROR2 (10 µM)) was inactive: 0 throughout. The “kinase-Nluc reporter destabilization hit call” value in the experiment with RPS6KA1 (10 µM), with SPHK1 (10 µM), in the experiment with SRC (10 µM) and with STK24 (10 µM) was inactive: 0 each time.
